Results from the supplement of paper PMC10735217.
The list shows a part of the results. Repeats in this data set agree poorly, so a single value says little.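 The human kidney-derived cells carry a stably integrated construct of eight TEAD-binding elements driving luciferase, read by luminescence in a drug-repurposing library screen. A compound counts as a hit when its signal is more than five robust Z scores above the plate mean.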

Tested on: HEK293A TEAD-LUC reporter
Experiment: TEAD-luciferase reporter activity (YAP activation), robust Z score vs plate; higher = stronger YAP/TEAD activation
Conditions: 24 h

Row | Compound | TEAD-luciferase reporter activity (compound concentration: 200 nM) | TEAD-luciferase reporter activity (compound concentration: 10 uM) | TEAD-luciferase reporter activity (compound concentration: 2 uM)
1 | Cc1cc2ncc(C(=O)N3CCCCC3)cn2n1 | inactive: -2.93 | inactive: 4.71 | –
2 | Cc1ccc(C2(O)CCN(CCCC(=O)c3ccc(F)cc3)CC2)cc1 | active: 5.12 | inactive: -0.241 | inactive: -1.44
3 | Cc1ccc2c(c1)-c1nc(-c3cccnc3)[nH]c1CCC2 | inactive: -0.575 | inactive: 0.643 | inactive: 0.721
4 | O=C(CCc1ccncc1)Nc1cc(N2CCOC2=O)ccc1F | inactive: -1.09 | inactive: 0.0771 | inactive: 1.12
5 | NC[C@H](O)c1ccc(O)c(O)c1 [(-)-Norepinephrine] | inactive: -0.762 | inactive: -0.784 | –
6 | NC[C@H](O)c1ccc(O)c(O)c1 [Noradrenaline] | – | – | inactive: -1.45
7 | C[C@H](NC(=O)[C@@H](Cc1ccc2ccccc2c1)NC(=O)[C@@H](C)N)C(=O)N[C@@H](Cc1c[nH]c2ccccc12)C(=O)N[C@H](Cc1ccccc1)C(=O)N[C@@H](CCCCN)C(N)=O [Pralmorelin] | inactive: 0.0135 | inactive: 0.585 | inactive: -0.866
8 | COc1ccc(-n2cc(C(=O)N3CCCC(C)C3)ccc2=O)cc1 (stereo not drawn) | inactive: -0.51 | inactive: -0.474 | inactive: 1.39
9 | CC1CCc2c(N3CCN(C)CC3)c(F)cc3c(=O)c(C(=O)O)cn1c23 (stereo not drawn) | inactive: -2.29 | inactive: 1.02 | inactive: -1.22
10 | CCc1nc2c(C)cc(C)nc2n1Cc1ccc2nc(-c3ccccc3C(=O)OC)ccc2c1 | inactive: -1.02 | inactive: -1.96 | inactive: -0.273
11 | O=S(=O)(O)c1cc(O)ccc1O [Calcium dobesilate] | – | – | inactive: -0.431
12 | O=S(=O)(O)c1cc(O)ccc1O [Ethamsylate] | inactive: -1.67 | inactive: 0.141 | –
13 | C#C[C@@]1(CO)C=C[C@H](n2cc(C)c(=O)[nH]c2=O)O1 | inactive: 0.731 | inactive: 1.12 | –
14 | Oc1nc(O)c(Cc2ccc3cc(OCc4ccccc4F)ccc3c2)s1 [netoglitazone] | inactive: -0.757 | active: 6.46 | inactive: 1.32
15 | CCNC1CC(N)C(OC2OC(CN)=CCC2N)C(O)C1OC1OCC(C)(O)C(NC)C1O (stereo not drawn) [netilmicin] | – | inactive: -1.69 | inactive: -0.949
16 | COc1ccc(-c2cnn(CC(C)=O)c(=O)n2)cc1 | inactive: -1.83 | inactive: 0.153 | inactive: -0.861
17 | CCC1OC(=O)CC(O)C(C)C(OC2OC(C)CC(N(C)C)C2O)C(CC=O)CC(C)C(=O)/C=C/C2(C)OC2C1C (stereo not drawn) [rosaramicin] | inactive: -0.729 | inactive: 1.3 | inactive: -0.783
18 | CC[C@H]1[C@@H](O)[C@@H]2[C@H](CC[C@]3(C)[C@@H]([C@H](C)CCC(=O)O)CC[C@@H]23)[C@@]2(C)CC[C@@H](O)C[C@@H]12 [Obeticholic acid] | – | – | inactive: 0.135
19 | CC[C@H]1[C@@H](O)[C@@H]2[C@H](CC[C@]3(C)[C@@H]([C@H](C)CCC(=O)O)CC[C@@H]23)[C@@]2(C)CC[C@@H](O)C[C@@H]12 | inactive: -0.773 | inactive: -1.02 | –
20 | CCOc1cc(CC(=O)N[C@@H](CC(C)C)c2ccccc2N2CCCCC2)ccc1C(=O)O [repaglinide] | – | – | inactive: -0.771
21 | CCOc1cc(CC(=O)N[C@@H](CC(C)C)c2ccccc2N2CCCCC2)ccc1C(=O)O | inactive: -0.661 | inactive: -0.838 | –
22 | Cc1occc1C(=S)Nc1ccc(Cl)c(/C=N/OC(C)(C)C)c1 | inactive: 0.385 | active: 6.44 | inactive: -0.907
23 | O=C(O)c1cn(C2CC2)c2cc(N3CCC(O)(COc4ccc(N5C[C@H](CO)OC5=O)cc4F)CC3)c(F)cc2c1=O [Cadazolid] | inactive: -1.04 | inactive: 2.66 | inactive: -1.14
24 | COc1ccc(CC(=O)N2CCCC3(Cc4ccccc4CN3C(C)=O)C2)cc1 (stereo not drawn) | inactive: -0.795 | inactive: -0.197 | –
25 | O=C(NCCNC(=O)c1ccccn1)c1ccc(-c2cccc(C(F)(F)F)c2)cc1 | inactive: -0.894 | inactive: -1.14 | –
26 | O=C1CC(c2ccccc2)Oc2cc(O)cc(O)c21 (stereo not drawn) [Pinocembrin] | inactive: 0.948 | inactive: -1.42 | inactive: -0.405
27 | C[C@H](CC(=O)O)[C@H]1CC[C@H]2[C@@H]3[C@@H](O)C[C@@H]4C[C@H](O)CCC4(C)[C@H]3CCC12C (stereo partly drawn) [24-norUrsodeoxycholic acid] | inactive: -0.889 | inactive: -1.5 | inactive: 1.51
28 | CCOC(=O)C1=CC2(CC)CCCN3CCc4c(n1c1ccccc41)C32 (stereo not drawn) [vinpocetine] | inactive: -0.35 | active: 5.34 | inactive: -0.628
29 | CN(C)CCOC(=O)C1Oc2ccccc2-c2ccccc21 (stereo not drawn) | inactive: -0.26 | inactive: 1.78 | inactive: -0.0554
30 | CC(=O)NC[C@H]1CN(c2ccc(OC3CCN(C(=O)CO)CC3)c(F)c2)C(=O)O1 | inactive: -0.375 | inactive: -1.52 | inactive: -0.961

From no. 15 up to 22, copied from above:
Row | Compound | TEAD-luciferase reporter activity (compound concentration: 200 nM) | TEAD-luciferase reporter activity (compound concentration: 10 uM) | TEAD-luciferase reporter activity (compound concentration: 2 uM)
15 | CCNC1CC(N)C(OC2OC(CN)=CCC2N)C(O)C1OC1OCC(C)(O)C(NC)C1O (stereo not drawn) [netilmicin] | – | inactive: -1.69 | inactive: -0.949
16 | COc1ccc(-c2cnn(CC(C)=O)c(=O)n2)cc1 | inactive: -1.83 | inactive: 0.153 | inactive: -0.861
17 | CCC1OC(=O)CC(O)C(C)C(OC2OC(C)CC(N(C)C)C2O)C(CC=O)CC(C)C(=O)/C=C/C2(C)OC2C1C (stereo not drawn) [rosaramicin] | inactive: -0.729 | inactive: 1.3 | inactive: -0.783
18 | CC[C@H]1[C@@H](O)[C@@H]2[C@H](CC[C@]3(C)[C@@H]([C@H](C)CCC(=O)O)CC[C@@H]23)[C@@]2(C)CC[C@@H](O)C[C@@H]12 [Obeticholic acid] | – | – | inactive: 0.135
19 | CC[C@H]1[C@@H](O)[C@@H]2[C@H](CC[C@]3(C)[C@@H]([C@H](C)CCC(=O)O)CC[C@@H]23)[C@@]2(C)CC[C@@H](O)C[C@@H]12 | inactive: -0.773 | inactive: -1.02 | –
20 | CCOc1cc(CC(=O)N[C@@H](CC(C)C)c2ccccc2N2CCCCC2)ccc1C(=O)O [repaglinide] | – | – | inactive: -0.771
21 | CCOc1cc(CC(=O)N[C@@H](CC(C)C)c2ccccc2N2CCCCC2)ccc1C(=O)O | inactive: -0.661 | inactive: -0.838 | –
22 | Cc1occc1C(=S)Nc1ccc(Cl)c(/C=N/OC(C)(C)C)c1 | inactive: 0.385 | active: 6.44 | inactive: -0.907
